Source: paper PMC10776897
Results are given in words; binding and its absence hold for the method and conditions named. Binding seen in cells or lysates may run through a third protein. Where a sequence is shown, tags or fusion partners need not be part of it.

Protein sequences, listed by entry. Tags and fused reporters are not part of them. Residues count along the entry.
UniProt Q04206, residues 2-551: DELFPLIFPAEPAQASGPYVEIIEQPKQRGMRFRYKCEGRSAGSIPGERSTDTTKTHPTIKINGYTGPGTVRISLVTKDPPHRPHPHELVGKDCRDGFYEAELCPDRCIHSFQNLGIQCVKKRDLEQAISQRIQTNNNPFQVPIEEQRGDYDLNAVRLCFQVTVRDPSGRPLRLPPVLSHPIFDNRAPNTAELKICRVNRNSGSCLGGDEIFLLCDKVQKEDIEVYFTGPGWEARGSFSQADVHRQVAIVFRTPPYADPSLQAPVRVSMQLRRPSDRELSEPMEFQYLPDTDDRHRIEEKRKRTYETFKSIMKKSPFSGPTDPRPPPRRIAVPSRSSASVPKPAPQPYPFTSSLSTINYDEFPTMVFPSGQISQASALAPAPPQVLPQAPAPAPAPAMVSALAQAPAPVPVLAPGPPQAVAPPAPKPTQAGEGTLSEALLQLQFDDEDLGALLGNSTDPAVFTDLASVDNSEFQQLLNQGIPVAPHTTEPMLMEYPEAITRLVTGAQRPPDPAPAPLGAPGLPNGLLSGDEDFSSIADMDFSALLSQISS

Biological target: GFP-tagged NSP14 (SARS-CoV-2, WT) (SARS-CoV-2 (Wuhan-Hu-1)) (UniProt P0DTD1)
Experiment: co-IP

| Molecule | binding |
| --- | --- |
| 3xFLAG-tagged p65 (from UniProt Q04206 2-551) | no binding |
| 3xFLAG-tagged c-Rel (protein, UniProt Q04864 2-619) ASGAYNPYIEIIEQPRQRGMRFRYKCEGRSAGSIPGEHSTDNNRTYPSIQIMNYYGKGKVRITLVTKNDPYKPHPHDLVGKDCRDGYYEAEFGQERRPLFFQNLGIRCVKKKEVKEAIITRIKAGINPFNVPEKQLNDIEDCDLNVVRLCFQVFLPDEHGNLTTALPPVVSNPIYDNRAPNTAELRICRVNKNCGSVRGGDEIFLLCDKVQKDDIEVRFVLNDWEAKGIFSQADVHRQVAIVFKTPPYCKAITEPVTVKMQLRRPSDQEVSESMDFRYLPDEKDTYGNKAKKQKTTLLFQKLCQDHVETGFRHVDQDGLELLTSGDPPTLASQSAGITVNFPERPRPGLLGSIGEGRYFKKEPNLFSHDAVVREMPTGVSSQAESYYPSPGPISSGLSHHASMAPLPSSSWSSVAHPTPRSGNTNPLSSFSTRTLPSNSQGIPPFLRIPVGNDLNASNACIYNNADDIVGMEASSMPSADLYGISDPNMLSNCSVNMMTTSSDSMGETDNPRLLSMNLENPSCNSVLDPRDLRQLHQMSSSSMSAGANSNTTVFVSQSDAFEGSDFSCADNSMINESGPSNSTNPNSHGFVQDSQYSGIGSMQNEQLSDSFPYEFFQV | no binding |
